At least one compound was matched to its structure with a doubt left.
System: Listeria monocytogenes
Experiment: Leukemia/listeriosis mouse model
Type: in vivo

In the case of `C=CC(=O)N1CCC[C@@H](n2nc(-c3ccc(Oc4ccccc4)cc3)c3c(N)ncnc32)C1` [ibrutinib], the “plasma IFNγ, TNFα, and IL6” value (day 2 post infection, vs vehicle-treated leukemic animals) is reported as “significantly elevated”, the “Listeria infection in liver” value (interim analyses) is reported as “cleared the infection by day 8” and the “survival of Listeria monocytogenes infection” value (listeriosis/leukemia mouse model) is reported as “survived”. For the same molecule, the “magnitude of Listeria response” value (longitudinal tetramer analysis, p=0.028) was “significantly restored” and the “depression of OVA-specific CD8 T-cell response (immunosuppression)” value (tetramer analysis, day 8) was “reversed”.
